The structures appear in SMILES notation. This is one part of the list. Repeats are few or missing, and single values can be far off.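 Imaging used 1,536-well plates; nuclei positive for cleaved PARP by antibody were divided by total DNA-stained nuclei to yield the apoptosis fraction. Doses for screening kept most cells viable, and cell lines differ markedly in resting and induced cleaved-PARP levels.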

This note sets out measurements from the supplement of paper PMC4604168 (melanoma cell lines).

In this test the test system is COLO800. As to the kind of experiment: cleaved PARP positive nuclei fraction relative to DMSO control; melanoma cells; higher = more apoptosis. Particulars: library dose: low library concentration; 72 h.
Turning to `C[As](C)SC[C@H](NC(=O)CC[C@H](N)C(=O)O)C(=O)NCC(=O)O` [Darinaparsin] + c1cc(-c2cnn3cc(-c4ccc(OCCN5CCCCC5)cc4)cnc23)ccn1 [Dorsomorphin] (first compound 0.4 µM, partner dose 0.4 µM), the “cleaved PARP positive nuclei fraction” value turned out to be 61.8%.
The result for `Cc1nc(Nc2ncc(C(=O)Nc3c(C)cccc3Cl)s2)cc(N2CCN(CCO)CC2)n1` [dasatanib] + Cc1cc(SCc2sc(-c3ccc(C(F)(F)F)c(F)c3)nc2C)ccc1OCC(=O)O [GW0742] (first compound 0.004 µM, partner dose 2 µM) reads 63%.
The result for `C/C(O)=C(\C#N)C(=O)Nc1cc(Br)ccc1Br` + Oc1nc(-c2ccc(C(F)(F)F)cc2)nc2c1CSCC2 [XAV939] (first compound 2 µM, partner dose 2 µM) reads 195%; that for `O=C(Nc1cccc(Cl)c1)Nc1ncc(CCNc2ncnc3ccsc23)s1` + C/C(O)=C(\C#N)C(=O)Nc1cc(Br)ccc1Br [LFM-A13] (first compound 0.0008 µM, partner dose 2 µM), 87.4%.
Regarding `Cc1ccc(NC(=O)c2cccc(N(C)C)c2)cc1NC(=O)c1ccc(O)cc1` + O=C(Oc1ccc([N+](=O)[O-])cc1)N1CCC(C(O)(c2ccc3c(c2)OCO3)c2ccc3c(c2)OCO3)CC1 [JZL184] (first compound 2 µM, partner dose 1 µM), the “cleaved PARP positive nuclei fraction” value is 52.6%.
The value for `O=C(Oc1ccc([N+](=O)[O-])cc1)N1CCC(C(O)(c2ccc3c(c2)OCO3)c2ccc3c(c2)OCO3)CC1` + CC(C)CCN1c2nc(Nc3cc(F)c(O)c(F)c3)ncc2N(C)C(=O)C1C [BID1870] (first compound 1 µM, partner dose 0.2 µM) was 208%.
